PubChem BioAssay AID1259425 – University of Nebraska Medical Center – 2018
Aim: 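Seek colon cancer weak points whose silencing resembles KSR1 loss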 (primary screen). Cell system: HCT116 human colon cancer cells. Reagent: siRNA pool against human genes, 50 nM siRNA. Measured: 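After 50 nM siRNA pool, branched-DNA assay measures six marker transcripts per well, minus blank, normalised to the geometric mean of two housekeeping transcripts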. Scale: BNIP3L mRNA: higher = more BNIP3L transcript after knockdown; NDRG1 mRNA: higher = more NDRG1 transcript after knockdown; BNIP3 mRNA: higher = more BNIP3 transcript after knockdown; ALDOC mRNA: higher = more ALDOC transcript after knockdown; ACSL5 mRNA: higher = more ACSL5 transcript after knockdown.
This is an unselected part of about 14,000 deposited reagents. Some reagents were tested in more than one well and are listed for each. Reagent sequences are not shown. The record does not give: the time to read-out.

gene | BNIP3L mRNA, set 1 | NDRG1 mRNA, set 1 | BNIP3 mRNA, set 1 | ALDOC mRNA, set 1 | ACSL5 mRNA, set 1
KIT (KIT proto-oncogene, receptor tyrosine kinase) | 0.131 | 0.433 | 0.558 | 0.0155 | 0.19
PRR15L (proline rich 15 like) | 0.0514 | 0.0913 | 0.315 | 0.0414 | 0.144
MTNAP1 (mitochondrial nucleoid associated protein 1) | 0.137 | 0.257 | 0.464 | 0.0215 | 0.0729
TRPV6 | 0.12 | 0.0796 | 0.271 | 0.00908 | 0.0799
CYB5R1 (cytochrome b5 reductase 1) | 0.149 | 0.198 | 0.509 | 0.0278 | 0.108
ASH2L (ASH2 like, histone lysine methyltransferase complex subunit) | 0.135 | 0.194 | 0.379 | 0.0315 | 0.288
PHKA1 (phosphorylase kinase regulatory subunit alpha 1) | 0.0821 | 0.06 | 0.313 | 0.0173 | 0.15
HSD11B2 (hydroxysteroid 11-beta dehydrogenase 2) | 0.1 | 0.308 | 0.232 | 0.0196 | 0.191
ETFA (electron transfer flavoprotein subunit alpha) | 0.0554 | 0.0751 | 0.235 | 0.00997 | 0.0746
DNAJB1 (DnaJ heat shock protein family (Hsp40) member B1) | 0.112 | 0.0576 | 0.168 | 0.0759 | 0.146
PRKG2 (protein kinase cGMP-dependent 2) | 0.0805 | 0.0734 | 0.377 | 0.00594 | 0.111
ZNF696 (zinc finger protein 696) | 0.104 | 0.251 | 0.194 | 0.037 | 0.166
ACRV1 (acrosomal vesicle protein 1) | 0.106 | 0.976 | 0.379 | 0.0271 | 0.341
ECHDC1 (ethylmalonyl-CoA decarboxylase 1) | 0.127 | 0.325 | 0.366 | 0.0646 | 0.13
PARD6G (par-6 family cell polarity regulator gamma) | 0.153 | 0.138 | 0.257 | 0.0841 | 0.375
GAD1 (glutamate decarboxylase 1) | 0.0877 | 0.139 | 0.304 | 0.0152 | 0.279
RAB40B (RAB40B, member RAS oncogene family) | 0.135 | 0.113 | 0.391 | 0.0151 | 0.169
SLC19A1 | 0.103 | 0.107 | 0.287 | 0.0123 | 0.166
TMEM254 (transmembrane protein 254) | 0.119 | 0.33 | 0.296 | 0.101 | 0.178
KDM2A (lysine demethylase 2A) | 0.0944 | 0.187 | 0.172 | 0.0146 | 0.129
FAM186B (family with sequence similarity 186 member B) | 0.101 | 0.359 | 0.226 | 0.0274 | 0.399
UGT1A9 (UDP glucuronosyltransferase family 1 member A9) | 0.122 | 0.175 | 0.211 | 0.0741 | 0.151
SUPT16H (SPT16 homolog, facilitates chromatin remodeling subunit) | 0.115 | 0.153 | 0.302 | 0.018 | 0.14
TFAM (transcription factor A, mitochondrial) | 0.086 | 0.191 | 0.257 | 0.0179 | 0.265
DNAJC17 (DnaJ heat shock protein family (Hsp40) member C17) | 0.102 | 0.58 | 0.372 | 0.0238 | 0.318
ATG2B (autophagy related 2B) | 0.118 | 0.113 | 0.386 | 0.0317 | 0.112
CACFD1 (calcium channel flower domain containing 1) | 0.103 | 0.151 | 0.228 | 0.0192 | 0.215
DHX29 (DExH-box helicase 29) | 0.085 | 0.301 | 0.372 | 0.0137 | 0.285
DLGAP4 (DLG associated protein 4) | 0.0728 | 0.436 | 0.338 | 0.0262 | 0.101
NOTCH4 (notch receptor 4) | 0.102 | 0.388 | 0.258 | 0.0223 | 0.115
SEC14L5 (SEC14 like lipid binding 5) | 0.204 | 0.158 | 0.328 | 0.0486 | 0.133
SEPSECS | 0.0865 | 0.196 | 0.312 | 0.0187 | 0.271
METAP1 (methionyl aminopeptidase 1) | 0.0894 | 0.15 | 0.266 | 0.0363 | 0.0845
MALL (mal, T cell differentiation protein like) | 0.0946 | 0.106 | 0.324 | 0.01 | 0.102
RAB11A (RAB11A, member RAS oncogene family) | 0.0661 | 0.0949 | 0.122 | 0.0235 | 0.241
VEZT (vezatin, adherens junctions transmembrane protein) | 0.106 | 0.423 | 0.468 | 0.00868 | 0.251
ICMT (isoprenylcysteine carboxyl methyltransferase) | 0.0935 | 0.34 | 0.304 | 0.016 | 0.176
ATP6V1C1 (ATPase H+ transporting V1 subunit C1) | 0.128 | 0.159 | 0.337 | 0.0411 | 0.232
ZCCHC2 (zinc finger CCHC-type containing 2) | 0.202 | 0.131 | 0.304 | 0.0408 | 0.319
ULK1 (unc-51 like autophagy activating kinase 1) | 0.0954 | 0.0899 | 0.28 | 0.018 | 0.247
CRELD2 (CRELD disulfide isomerase 2) | 0.117 | 0.216 | 0.253 | 0.0371 | 0.292
GRK5 (G protein-coupled receptor kinase 5) | 0.112 | 0.0773 | 0.285 | 0.00478 | 0.279
GRK5 (G protein-coupled receptor kinase 5) | 0.144 | 0.16 | 0.314 | 0.0186 | 0.205
USP19 (ubiquitin specific peptidase 19) | 0.0696 | 0.186 | 0.277 | 0.0251 | 0.235
NELFCD (negative elongation factor complex member C/D) | 0.138 | 0.264 | 0.431 | 0.0853 | 0.366
PSMD12 (proteasome 26S subunit, non-ATPase 12) | 0.306 | 1.46 | 0.416 | 0.0363 | 0.21
SGCE (sarcoglycan epsilon) | 0.108 | 0.219 | 0.297 | 0.0327 | 0.284
CGGBP1 (CGG triplet repeat binding protein 1) | 0.224 | -0.0201 | 0.439 | 0.0209 | 0.429
ERCC3 (ERCC excision repair 3, TFIIH core complex helicase subunit) | 0.0849 | 0.122 | 0.122 | 0.0149 | 0.161
GRK7 (G protein-coupled receptor kinase 7) | 0.102 | 0.165 | 0.28 | 0.0133 | 0.148
GRK7 (G protein-coupled receptor kinase 7) | 0.166 | 0.139 | 0.277 | 0.0425 | 0.117

7 neighbouring reagents from above:
gene | BNIP3L mRNA, set 1 | NDRG1 mRNA, set 1 | BNIP3 mRNA, set 1 | ALDOC mRNA, set 1 | ACSL5 mRNA, set 1
KDM2A (lysine demethylase 2A) | 0.0944 | 0.187 | 0.172 | 0.0146 | 0.129
FAM186B (family with sequence similarity 186 member B) | 0.101 | 0.359 | 0.226 | 0.0274 | 0.399
UGT1A9 (UDP glucuronosyltransferase family 1 member A9) | 0.122 | 0.175 | 0.211 | 0.0741 | 0.151
SUPT16H (SPT16 homolog, facilitates chromatin remodeling subunit) | 0.115 | 0.153 | 0.302 | 0.018 | 0.14
TFAM (transcription factor A, mitochondrial) | 0.086 | 0.191 | 0.257 | 0.0179 | 0.265
DNAJC17 (DnaJ heat shock protein family (Hsp40) member C17) | 0.102 | 0.58 | 0.372 | 0.0238 | 0.318
ATG2B (autophagy related 2B) | 0.118 | 0.113 | 0.386 | 0.0317 | 0.112
